Measurements from PubChem BioAssay AID493014 (National Center for Advancing Translational Sciences (NCATS), 2011).
The other results are listed elsewhere or left out. Further columns of the screen follow, without active or inactive calls. Most of these compounds were active or inconclusive in the main read-out, so they are no random draw. The note in brackets gives the kind of curve behind each potency; many fits are weak.

Assay: qHTS Assay to Find Inhibitors of Chronic Active B-Cell Receptor Signaling
Settings: ABC-DLBCL IkBa-CBG/CBR reporter, luminescence ratio (green luciferase fused to IkBa over red control in TMD8 lymphoma cells), 4 h
Method in brief: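 Doxycycline induced both beetle luciferases in TMD8 lymphoma cells; IKK-driven degradation limits the IkappaBalpha-fused green signal, while red luminescence normalises for cell number and nonspecific effects. Compounds tested up to 46 uM, 4 hrs.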

[1] = measured here: CBR red luminescence, cell number
[2] = measured here: IkBa-CBG green luminescence

Compound	AC50 [1]	AC50 [2]
O=c1c2ccccc2[nH]c(=S)n1CCN1CCC(=C(c2ccc(F)cc2)c2ccc(F)cc2)CC1	23.1 µM [rising, single point]	–
COc1ccc(-c2[nH]ncc2CN2CCCC(C(=O)c3ccc(OC)cc3OC)C2)cc1 (stereo unspecified)	3.98 µM [falling, single point]	–
Nc1c(S(=O)(=O)c2cccs2)c2nc3ccccc3nc2n1Cc1ccc2c(c1)OCO2	4.47 µM [falling, partial curve, poor fit]	–
COC(=O)c1ccc(COC(=O)c2ccccc2OC)cc1	2.06 µM [rising, partial curve]	–
Cc1cc(C(=O)Nc2ccc(Cl)cc2)n(-c2ccccc2)n1	12.6 µM [falling, partial curve]	–
OCCNCCNCc1ccc(-c2ccccc2)cc1	35.5 µM [falling, single point]	–
O=c1[nH]c2ccccc2n1CCCN1CCCCC1	10 µM [falling, partial curve, poor fit]	–
Cc1ccnc(SCC(=O)c2ccc([N+](=O)[O-])cc2)n1	2.06 µM [rising, partial curve]	–
COc1ccc(C(=O)/C=C/N2CCCCC2)cc1OC	1.12 µM [rising, full curve, poor fit]	–
Cc1ccc(C)c(NS(=O)(=O)c2ccc(NC(=O)CSc3ccc(Cl)cc3)cc2)c1	0.651 µM [rising, full curve]	–
Cc1ccccc1C(=O)N1CCN(c2ccc(NC(=O)c3ccc([N+](=O)[O-])o3)cc2)CC1	6.31 µM [falling, single point]	–
O=C1c2ccccc2C(=O)N1CNc1ccccc1	0.116 µM [falling, full curve, poor fit]	–
COc1cc(C(=O)NCCSc2ccc(Cl)cc2)cc(OC)c1OC	3.16 µM [falling, single point]	–
Cc1ccsc1/C=N\Nc1cn[nH]c(=O)c1Cl	14.1 µM [falling, partial curve]	–
COc1cc(C)ccc1OCCOc1c(C)cc(Cl)cc1Cl	4.11 µM [rising, full curve, poor fit]	–
CCCNC(=O)c1ccc2c(c1)nc(C)n2-c1cccc(Cl)c1	35.5 µM [rising, single point]	–
CN(C)S(=O)(=O)c1ccc(N2CCCC2)c(C(=O)NNC(=O)COc2ccccc2F)c1	3.66 µM [rising, full curve, poor fit]	–
Cc1ccc(O)c(NC(=S)NC(=O)c2ccccc2Cl)c1	5.62 µM [falling, partial curve]	–
CCc1ccc(OC(=O)/C=C/c2ccco2)cc1	35.5 µM [rising, single point]	–
CN(C)c1c([N+](=O)[O-])cc2[nH]c(=O)[nH]c2c1[N+](=O)[O-]	13 µM [rising, single point]	–
CSc1sc(C(=O)NNC(=O)c2ccc(Cl)cc2)c2c1C=CCC2	10 µM [falling, partial curve, poor fit]	–

At a glance, some entries already given:
Compound	AC50 [1]	AC50 [2]
O=c1c2ccccc2[nH]c(=S)n1CCN1CCC(=C(c2ccc(F)cc2)c2ccc(F)cc2)CC1	23.1 µM [rising, single point]	–
COc1ccc(-c2[nH]ncc2CN2CCCC(C(=O)c3ccc(OC)cc3OC)C2)cc1 (stereo unspecified)	3.98 µM [falling, single point]	–
Nc1c(S(=O)(=O)c2cccs2)c2nc3ccccc3nc2n1Cc1ccc2c(c1)OCO2	4.47 µM [falling, partial curve, poor fit]	–
COC(=O)c1ccc(COC(=O)c2ccccc2OC)cc1	2.06 µM [rising, partial curve]	–
Cc1cc(C(=O)Nc2ccc(Cl)cc2)n(-c2ccccc2)n1	12.6 µM [falling, partial curve]	–
OCCNCCNCc1ccc(-c2ccccc2)cc1	35.5 µM [falling, single point]	–
O=c1[nH]c2ccccc2n1CCCN1CCCCC1	10 µM [falling, partial curve, poor fit]	–
Cc1ccnc(SCC(=O)c2ccc([N+](=O)[O-])cc2)n1	2.06 µM [rising, partial curve]	–
COc1ccc(C(=O)/C=C/N2CCCCC2)cc1OC	1.12 µM [rising, full curve, poor fit]	–
Cc1ccc(C)c(NS(=O)(=O)c2ccc(NC(=O)CSc3ccc(Cl)cc3)cc2)c1	0.651 µM [rising, full curve]	–
Cc1ccccc1C(=O)N1CCN(c2ccc(NC(=O)c3ccc([N+](=O)[O-])o3)cc2)CC1	6.31 µM [falling, single point]	–
O=C1c2ccccc2C(=O)N1CNc1ccccc1	0.116 µM [falling, full curve, poor fit]	–
COc1cc(C(=O)NCCSc2ccc(Cl)cc2)cc(OC)c1OC	3.16 µM [falling, single point]	–

More structures

Compound	AC50 [1]	AC50 [2]
O=C(OCn1ncc(Cl)c(Cl)c1=O)c1cccc(C(F)(F)F)c1	5.62 µM [falling, full curve, poor fit]	–
COc1ccc(C(C)(C)C)cc1NC(=O)CSc1ncn[nH]1	2.91 µM [rising, single point]	–
O=C(COC(=O)C1CCN(S(=O)(=O)c2cccs2)CC1)c1ccccc1	0.501 µM [rising, full curve, poor fit]	–
CCOCCCNC(=O)c1ccc2nc(-c3ccc(OC)c(OC)c3)c(-c3ccc(OC)c(OC)c3)nc2c1	11.2 µM [rising, partial curve, poor fit]	22.4 µM [falling, partial curve, poor fit]
CC(=O)NC[C@H]1CN(c2ccc(N3CCOCC3)c(F)c2)C(=O)O1	2.24 µM [rising, full curve, poor fit]	–
O=C(COC(=O)c1ccc(F)c([N+](=O)[O-])c1)NC(=O)NCc1ccccc1	11.6 µM [falling, single point]	–
CC(C)CC(COCc1ccc(Cl)cc1)N1CCN(C(=O)c2ccc(Cl)cc2Cl)CCC1=O (stereo unspecified)	18.4 µM [falling, single point]	–
COc1ccc(CCn2c(N)c(C(=O)NCc3ccco3)c3nc4ccccc4nc32)cc1OC	11.2 µM [falling, partial curve, poor fit]	–
O=C(C1=C[C@@H](C2CC2)C[C@@H](OCCCCO)O1)N1CCOCC1	3.55 µM [rising, partial curve, poor fit]	–
Oc1cccc(/C=N\Nc2nncc(-c3ccccc3)n2)c1	2 µM [falling, full curve]	–
CCc1ccc(N/C(SCc2cccc(F)c2)=C(/C#N)C(=O)NCc2ccco2)cc1	10 µM [falling, partial curve]	–
C(=N\Nc1nc2ccccc2[nH]1)/c1ccc2ncccc2c1	14.1 µM [falling, single point]	–
On1onc2c3cc(-c4ccccc4)nc3ccc21	14.6 µM [falling, single point]	–
CCOc1cc(/C=N/Nc2cccc(C(=O)O)c2)ccc1OCC(=O)N1CCCCC1	35.5 µM [falling, partial curve, poor fit]	–
CC(C)(C)c1cc(S(=O)(=O)CCc2ccccn2)cc(C(C)(C)C)c1F	13 µM [falling, partial curve, poor fit]	–
CC(=O)Nc1ccc2nc(-c3cccnc3)[nH]c2c1	29.1 µM [falling, single point]	23.1 µM [rising, partial curve, poor fit]
CN(CCc1cn[nH]c1)Cc1nc(C(c2ccccc2)c2ccccc2)no1	35.5 µM [falling, single point]	–
CC(C)c1ccccc1NC(=S)N1CCN(Cc2ccc3c(c2)OCO3)CC1	22.4 µM [falling, partial curve, poor fit]	–
Cc1c(NC(=O)C(c2ccccc2)c2ccccc2)cccc1C(=O)O	12.6 µM [rising, partial curve, poor fit]	–
O=c1[nH]c2ccccc2c(O)c1-c1ccccc1[N+](=O)[O-]	35.5 µM [rising, single point]	–
COc1ccc(/C=C2\SC(=S)N(CCC(=O)Nc3cccc(C(=O)O)c3)C2=O)cc1	2.82 µM [falling, full curve]	–

Compound	AC50 [1]	AC50 [2]
CC(C)(C)c1ccc(/C=C2\Oc3cc(O)ccc3C2=O)cc1	35.5 µM [falling, single point]	–
Oc1ccc(N2CCN(c3nc(-c4cccs4)nc4ccccc34)CC2)cc1	15.8 µM [falling, partial curve, poor fit]	–
COCCCN(C(=O)c1ccccc1F)c1nc(-c2ccc(OC)cc2)cs1	15.8 µM [falling, partial curve, poor fit]	–
Cc1cccnc1NC(=O)COc1ccc2c(c1)CCC2	23.1 µM [falling, partial curve]	–
CCOC(=O)CN(C(=O)COc1nc(-c2ccccc2)cc(C)c1C#N)c1cccc(OC)c1	3.98 µM [falling, partial curve, poor fit]	–
Cc1ccc(NC(=O)CSc2nnc(-c3cnccn3)n2Cc2ccco2)cc1	23.1 µM [falling, single point]	–
COc1ccccc1C(=O)NC(=S)Nc1ccc(NC(=O)c2ccco2)cc1	3.16 µM [rising, full curve]	–
COc1cccc(C(c2c(O)nc(SC)n(C)c2=O)c2c(O)nc(SC)n(C)c2=O)c1	17.8 µM [falling, single point]	–
COc1ccc([C@H]2CC(=O)C=C(c3ccc4ncccc4c3)C2)cc1OC	6.51 µM [rising, single point]	–
Cc1nc(NC(=O)C2CCCC2)sc1Cc1ccc2c(c1)OCO2	18.4 µM [falling, single point]	–
CCSc1nc(N2CCOCC2)c2c(c1C#N)CCCC2	15.8 µM [rising, partial curve, poor fit]	–
CCOC(=O)C1C(=O)OC(C)(C)C1C(CC)C(=O)c1c(C)cc(C)cc1C (stereo unspecified)	4.47 µM [falling, full curve]	–
COC(=O)c1ccc(NC(=O)c2ccc3nsnc3c2)cc1	2.51 µM [falling, partial curve, poor fit]	–
Cn1c2c(c(=O)n(C)c1=O)C1c3ccccc3OCC1C(C)(C)O2 (stereo unspecified)	0.651 µM [rising, full curve, poor fit]	–
CC(C)(C)NC(=O)CSc1ncnc2c1cnn2-c1ccccc1	2.82 µM [falling, full curve, poor fit]	–
COc1cccc(Cn2c(=O)c3[nH]cnc3n(-c3ccccc3C)c2=O)c1	17.8 µM [rising, partial curve]	12.6 µM [falling, single point]
COc1ccc(C(=O)N/N=C/C2CC=CCC2)cc1OC (stereo unspecified)	35.5 µM [falling, single point]	–
CC(C)CN(C(=O)Cn1nnc(-c2ccc(F)cc2)n1)C1CCS(=O)(=O)C1 (stereo unspecified)	20.6 µM [falling, partial curve]	–
Cc1ccc(/C([O-])=C(/C(=S)NCc2ccccc2)[n+]2cccc(CO)c2)cc1[N+](=O)[O-]	35.5 µM [rising, partial curve, poor fit]	–
O=[N+]([O-])c1ccc(N/N=C/c2ccccc2)c(F)c1	0.58 µM [rising, full curve]	–
CC(Oc1ccc(F)cc1)C(=O)Nc1cc(S(=O)(=O)N2CCCCC2)ccc1N1CCOCC1 (stereo unspecified)	4.11 µM [rising, full curve, poor fit]	–
